Data published in publication PMC7819943, “Rice protein-binding microarrays: a tool to detect cis-acting elements near promoter regions in rice”.
Some of the results follow.

Sequences of proteins named here, by UniProt entry; tags and fusion partners are left off.
UniProt Q0JBA9, entry or part of it: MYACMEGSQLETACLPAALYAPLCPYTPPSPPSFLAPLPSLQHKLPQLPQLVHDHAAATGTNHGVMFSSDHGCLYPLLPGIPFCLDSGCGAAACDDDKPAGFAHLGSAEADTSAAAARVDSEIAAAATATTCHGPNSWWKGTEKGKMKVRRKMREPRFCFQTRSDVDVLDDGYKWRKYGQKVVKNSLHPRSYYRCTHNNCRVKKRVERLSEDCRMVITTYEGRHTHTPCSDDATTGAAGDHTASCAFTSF

molecular target: OsWRKY34 (Oryza sativa, UniProt Q0JBA9 1-250); assay: protein-binding microarray (RPBM); PBS, 2% BSA, 51.3 ng/ul salmon testes DNA, 50 uM zinc acetate, 200 nM TF, 25 C, 1 h; high values mean tight binding; conditions: protein: recombinant; tags: N-terminal polyhistidine and DsRed monomer fusion (pET32a); label: CyDye5-dUTP incorporated in the synthesized complementary strand; 3' TTTTT single-stranded linker to array surface; dsDNA, one strand shown
Summary of the method: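 The binding signal is fluorescence intensity per array feature (arbitrary units). Readings came from an Axon 4000B scanner after a washed, 2% BSA-blocked, double-stranded custom Agilent array had been incubated for 1 h at 25 °C with 200 nM protein and 50 µM zinc acetate. The protein was a Ni–NTA-purified transcription factor fused N-terminally to polyhistidine and DsRed, expressed in E. coli BL21-CodonPlus.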

Going from “GTGGCCTTTGGGAGCGGTGACCTGCTGCTCCATCCTTCATCGGAGTCACCTAGTGCAG” to “AACTAACTGGCACGCCCTCATATCACCAACCTTTGGACCTCGGAGTCACCTAGTGCAG”, the binding signal falls from 9620 fluorescence intensity (a.u.) to 8560 fluorescence intensity (a.u.).

First: ACCGTTTGCCCCTATTATGTTAATTCTTGTTAACGGTGTTCGGAGTCACCTAGTGCAG
Second: GATCCTATTTTGAAACCTAACTACCAATTTAACTTTACTTCGGAGTCACCTAGTGCAG
The binding signal of the first is higher: 9120 fluorescence intensity (a.u.) for the first, 8860 fluorescence intensity (a.u.) for the second.

Compared with “CGAGTATACTGTCGTTCAACCCTTTTCCAGTTCATACGTACGGAGTCACCTAGTGCAG”, “GGGGATCGGAGGGTGGGGATACGCATGGTGGATGGTAGTGCGGAGTCACCTAGTGCAG” is higher in binding signal: 9940 fluorescence intensity (a.u.) for the first, 12600 fluorescence intensity (a.u.) for the second.

Going from “ATCCGATCCTTTGTTGGTTTTGTTTTTTTTTGTGTTCTATCGGAGTCACCTAGTGCAG” to “CCCAATTAAATGCCCGAATCATTCTTCTCGGCCCACTCTGCGGAGTCACCTAGTGCAG”, the binding signal falls from 13500 fluorescence intensity (a.u.) to 8430 fluorescence intensity (a.u.).

First: CTGCCGTTTCGTCTATTCTGGCCACACTAAACAATGAGCACGGAGTCACCTAGTGCAG
Second: CCGCTCCGTCCTCGGCCTTTTCGCCCTCTTCTTCTTCGTCCGGAGTCACCTAGTGCAG
The binding signal of the first is lower: 10200 fluorescence intensity (a.u.) for the first, 11500 fluorescence intensity (a.u.) for the second.

Compared with “GGCTCCATGCCTGCTGCTATCTTCAATATGTCCTACCTGCCGGAGTCACCTAGTGCAG”, “CCTACAGTTTGTCCTCTGCTGCTTACATGTTTTTCTTATTCGGAGTCACCTAGTGCAG” is higher in binding signal: 8440 fluorescence intensity (a.u.) for the first, 10500 fluorescence intensity (a.u.) for the second.

Going from “ATCACCTAACCCATCCATGGCTTTGTTTGATCGTATCTCTCGGAGTCACCTAGTGCAG” to “ATTACTGTGCACAAGCTGCTCTTGATCAATTCAATTTTGCCGGAGTCACCTAGTGCAG”, the binding signal rises from 8060 fluorescence intensity (a.u.) to 12200 fluorescence intensity (a.u.).

Going from “GTTCTCGTGTTTTATTTCCGTTGTAACGCACGGTTTTTTTCGGAGTCACCTAGTGCAG” to “ATCAGCCTCATGCCCTTGTAGTCCATCGATCTGTCAGATCCGGAGTCACCTAGTGCAG”, the binding signal rises from 8510 fluorescence intensity (a.u.) to 13300 fluorescence intensity (a.u.).

Going from “ATCCATCGTCATCAACCGGCCCGTTCTGTTCGAACCCACACGGAGTCACCTAGTGCAG” to “CGCACGCCCGCACGCACCACCACCTGCTGAAATCCCTGCGCGGAGTCACCTAGTGCAG”, the binding signal falls from 9320 fluorescence intensity (a.u.) to 8140 fluorescence intensity (a.u.).

Going from “GTGCTCATGACATTGTCCGTCTTAGTGTGGGTTGGGACCCCGGAGTCACCTAGTGCAG” to “CCCATCTTCCTACGTAAACCCAACAGCCGGCCCACTCAGACGGAGTCACCTAGTGCAG”, the binding signal falls from 12800 fluorescence intensity (a.u.) to 10300 fluorescence intensity (a.u.).

Going from “GTTTAAACCGCTGCTCGCCAACTTGATTTACGAACAGACACGGAGTCACCTAGTGCAG” to “TTCACCTTTCTTTCGTTCGGCCTAAATTATGATTTGTTTTCGGAGTCACCTAGTGCAG”, the binding signal rises from 8230 fluorescence intensity (a.u.) to 9200 fluorescence intensity (a.u.).

Compared with “TCCGCGACGCTGCAATAATTCGCTTCCATATTTGCTGCCGCGGAGTCACCTAGTGCAG”, “CTGTTTTTCGCGCGCACGTTCCCCAAACTTCTAGACAATACGGAGTCACCTAGTGCAG” is lower in binding signal: 8590 fluorescence intensity (a.u.) for the first, 8060 fluorescence intensity (a.u.) for the second.

Going from “CGTACATCACCTGTCCAAATCGTATTTGACCCGATCTGCTCGGAGTCACCTAGTGCAG” to “TCGTCTATTGGTCTATTTGAGTCTGGCTATCTTCATAAATCGGAGTCACCTAGTGCAG”, the binding signal falls from 8980 fluorescence intensity (a.u.) to 8390 fluorescence intensity (a.u.).

Compared with “CCCAGCACCGCCCTATTGGTAGGAATTTTCATTTCTTCTTCGGAGTCACCTAGTGCAG”, “CCGCCGCCTTCGACTGCCGCCGCTCCGCCGTCGTCGCATCCGGAGTCACCTAGTGCAG” is higher in binding signal: 8400 fluorescence intensity (a.u.) for the first, 10200 fluorescence intensity (a.u.) for the second.

First: TTGTTGGTGCCCATTTACTTTCTCCTCCAAGGCACCAGCACGGAGTCACCTAGTGCAG
Second: TCCTTGCCATCCAGATTTCCTCCTCTCCTTTCTTCTTCTTCGGAGTCACCTAGTGCAG
The binding signal of the first is lower: 8270 fluorescence intensity (a.u.) for the first, 9270 fluorescence intensity (a.u.) for the second.

Compared with “CGGCCATGACAACGCGTTTATTCCTAACAGCCACATGCATCGGAGTCACCTAGTGCAG”, “GACGCCCCTCCGCTGGCCAGCTTCCAGTCCTGCCAACAACCGGAGTCACCTAGTGCAG” is lower in binding signal: 8960 fluorescence intensity (a.u.) for the first, 8950 fluorescence intensity (a.u.) for the second.

Going from “CTCCCACATCTGTCTTGTTCTTGGAAACGCATTCCGTGTTCGGAGTCACCTAGTGCAG” to “TCTCTCTCTCTCTCTCCATCTCCTAATTCCTACATTTTCCCGGAGTCACCTAGTGCAG”, the binding signal falls from 9110 fluorescence intensity (a.u.) to 8230 fluorescence intensity (a.u.).

Compared with “CTTACTCTAATCTTTAAGTTTGTTGCTCGGTCGCATGTCTCGGAGTCACCTAGTGCAG”, “ACCAAAGACCGATGGTTCGGTCTAAACCATCGGTCTGATTCGGAGTCACCTAGTGCAG” is lower in binding signal: 8950 fluorescence intensity (a.u.) for the first, 8890 fluorescence intensity (a.u.) for the second.

Compared with “GACCCCGACTCTGCTTCCCATCGCCATTGCTGCCCTCCTCCGGAGTCACCTAGTGCAG”, “AGAGGTGAGATGCTTCCCAGTGGGTTCTTGATCCGGCCTACGGAGTCACCTAGTGCAG” is lower in binding signal: 9700 fluorescence intensity (a.u.) for the first, 8150 fluorescence intensity (a.u.) for the second.

First: GTACACAGCCACATGCTTACCTTGACAGTTATTTTGACACCGGAGTCACCTAGTGCAG
Second: TCTCCTCCACCTCGTCGTCGTCGCCTCTCCACCTACCGGACGGAGTCACCTAGTGCAG
The binding signal of the first is higher: 9270 fluorescence intensity (a.u.) for the first, 8220 fluorescence intensity (a.u.) for the second.

Compared with “AGAGGGATGGGTGTGGGCAGCGGTGGGCGGTAAGGCACCACGGAGTCACCTAGTGCAG”, “GTCCTCTTGCCTCGTCGTGTCGCACCTCATGATTTACGTTCGGAGTCACCTAGTGCAG” is higher in binding signal: 9360 fluorescence intensity (a.u.) for the first, 10100 fluorescence intensity (a.u.) for the second.
